Measured values as given in patent US20240400677A1.

Molecular target: cynomolgus monkey SIRPβ1-His monomer protein (cynomolgus monkey)
Experiment: BLI

binding: no binding (tested: <0.02 nm at 115 s)
B1: Antibody 10 (scFv, V domains shown)
VH: QVQLVQSGAEVKKPGASVKVSCKASGGTFSNYDISWVRQAPGQGLEWMGMIDPSGGSTSYAQKFQGRVTMTRDTSTSTVYMELSSLRSEDTAVYYCARPYSSGWYYFDYWGQGTLVTVSS
VL: DIQMTQSPSSLSASVGDRVTITCQASQDIHNYLNWYQQKPGKAPKLLIYDASNLETGVPSRFSGSGSGTDFTLTISSLQPEDFATYYCQQSYNTPPTFGQGTRLEIK

binding: no binding (tested: <0.02 nm at 115 s)
B2: Antibody 30 (scFv, V domains shown)
VH: QVQLVQSGAEVKKPGASVKVSCKASGYTFTNFDINWVRQAPGQGLEWMGWISAYNGHTNYAQNLQGRVTMTRDTSTSTVYMELSSLRSEDTAVYYCAQEAAAGYFDYWGQGTLVTVSS
VL: B1 VL with Q24R, H30R, Y32D, N34A, N93G, P96Y, R103K

binding: no binding (tested: <0.02 nm at 115 s)
B3: Antibody 23 (scFv, V domains shown)
VH: QVQLVQSGAEVKKPGASVKVSCKASGGTFSNYDINWVRQAPGQGLEWMGWISAYNGNTNYAQKLQGRVTMTRDTSTSTVYMELSSLRSEDTAVYYCAAEAYGDYSLDPWGQGTLVTVSS
VL: B1 VL with D28G, H30S, N31S, D50A, N53S, E55Q, T56N, N93S, P96I

binding: no binding (tested: <0.02 nm at 115 s)
B4: Antibody 35 (scFv, V domains shown)
VH: QVQLVQSGAEVKKPGASVKVSCKASGYTFTSYYIHWVRQAPGQGLEWMGTINPSGGSTSYAQKFQGRVTMTRDTSTSTVYMELSSLRSEDTAVYYCARETSRWLRDYYYGMDVWGQGTTVTVSS
VL: DIVMTQSPLSLPVTPGEPASISCRSSQSLLHSNGYNYLDWYLQKPGQSPQLLIYDASSLESGVPDRFSGSGSGTDFTLKISRVEAEDVGVYYCMQGTHWPLTFGGGTKVEIK

binding: no binding (tested: <0.02 nm at 115 s)
B5: Antibody 14 (scFv, V domains shown)
VH: QVQLVQSGAEVKKPGASVKVSCKASGYTFTSYYMHWVRQAPGQGLEWMGWVDPNNGDTGYAQKFQGRVTMTRDTSTSTVYMELSSLRSEDTAVYYCARDNWGSLDVWGKGTTVTVSS
VL: DIVMTQSPLSLPVTPGEPASISCRSSQSLLHSNGYNYLDWYLQKPGQSPQLLIYAASTLQSGVPDRFSGSGSGTDFTLKISRVEAEDVGVYYCMQGLQTLYSFGQGTKLEIK

binding: no binding (tested: <0.02 nm at 115 s)
B6: Antibody 34 (scFv, V domains shown)
VH: QVQLVQSGAEVKKPGASVKVSCKASGYTFSNYYMHWVRQAPGQGLEWMGWMNPNSGNTGYAQKFQGRVTMTRDTSTSTVYMELSSLRSEDTAVYYCARASMYSSSGFDYWGQGTLVTVSS
VL: B5 VL with A55L, L59R, Q60A, S61P, L97S, Q98H, T99W, L100P, Y101P, K108R

binding: no binding (tested: <0.02 nm at 115 s)
B7: Antibody 12 (scFv, V domains shown)
VH: QVQLVQSGAEVKKPGASVKVSCKASGGTFGSYGINWVRQAPGQGLEWMGWISAYNGNTNYAQKLQGRVTMTRDTSTSTVYMELSSLRSEDTAVYYCARDGIDYGGNSGYDYWGQGTLVTVSS
VL: DIQMTQSPSSLSASVGDRVTITCRASQNIRNYLNWYQQKPGKAPKLLIYAASSLQGGVPSRFSGSGSGTDFTLTISSLQPEDFATYYCQQSYNGPYTFGQGTKVEIK

binding: no binding (tested: <0.02 nm at 115 s)
B8: Antibody 16 (scFv, V domains shown)
VH: QVQLVQSGAEVKKPGASVKVSCKASGYTFTSYYMHWVRQAPGQGLEWMGWINPNSGNAGFAQKFQGRVTMTRDTSTSTVYMELSSLRSEDTAVYYCARGPVYSYGPFDYWGQGTLVTVSS
VL: B7 VL with N28G, R30S, N31T, N34A, S53T, G56S, Y92H, N93S, G94A, Y96I

binding: no binding (tested: <0.02 nm at 115 s)
B9: Antibody 33 (scFv, V domains shown)
VH: QVQLVQSGAEVKKPGASVKVSCKASGYTFTSYYMHWVRQAPGQGLEWMGWMNPNSDNTGYAQKFQGRVTMTRDTSTSTVYMELSSLRSEDTAVYYCARVGVGYGYYYYGMDVWGQGTTVTVSS
VL: B7 VL with S26G, N28S, R30G, N31D, G56S, N93S, G94T, Y96W

binding: no binding (tested: <0.02 nm at 115 s)
B10: Antibody 15 (scFv, V domains shown)
VH: QVQLVQSGAEVKKPGASVKVSCKASGYSFTSYGISWVRQAPGQGLEWMGWISPYNGNTNYAQKLQGRVTMTRDTSTSTVYMELSSLRSEDTAVYYCAREAYGDYGDYFDYWGQGTLVTVSS
VL: DIQMTQSPSSLSASVGDRVTITCRASQGVGDRSAWYQQKPGKAPKLLIYDASNLETGVPSRFSGSGSGTDFTLTISSLQPEDFATYYCQQADTFPYTFGQGTKLEIK

binding: no binding (tested: <0.02 nm at 115 s)
B11: Antibody 26 (scFv, V domains shown)
VH: QVQLVQSGAEVKKPGASVKVSCKASGYTFTSYYMHWVRQAPGQGLEWMGRINPNSGGTKYAQKFQGRVTMTRDTSTSTVYMELSSLRSEDTAVYYCARLGSAYFDLWGRGTLVTVSS
VL: DIQMTQSPSSLSASVGDRVTITCRASQSVDTWLAWYQQKPGKAPKLLIYEASTLESGVPSRFSGSGSGTDFTLTISSLQPEDFATYYCQQANSFPITFGQGTRLEIK

binding: no binding (tested: <0.02 nm at 115 s)
B12: Antibody 17 (scFv, V domains shown)
VH: QVQLVQSGAEVKKPGASVKVSCKASGYTFTRNYVHWVRQAPGQGLEWMGRINPNSGGTNTAQKFQGRVTMTRDTSTSTVYMELSSLRSEDTAVYYCARLGDVAVAASFDYWGQGTLVTVSS
VL: DIQMTQSPSSLSASVGDRVTITCRASQSISSYLNWYQQKPGKAPKLLIYDASSLESGVPSRFSGSGSGTDFTLTISSLQPEDFATYYCQQANSFPLTFGPGTKVDIK

binding: no binding (tested: <0.02 nm at 115 s)
B13: Antibody 28 (scFv, V domains shown)
VH: QVQLVQSGAEVKKPGASVKVSCKASGYTFTSYNIHWVRQAPGQGLEWMGWISAYNGNTNYAQKLQGRVTMTRDTSTSTVYMELSSLRSEDTAVYYCALDGGQLGVAFDIWGQGTMVTVSS
VL: B12 VL with S28G, S31N, Y32W, N34A, S53N, E55D, S56A, F94L, P100G, D105E

binding: no binding (tested: <0.02 nm at 115 s)
B14: Antibody 9 (scFv, V domains shown)
VH: QVQLVQSGAEVKKPGASVKVSCKASGYSFSDYYMHWVRQAPGQGLEWMGWMSPNSGNTGYAQKFQGRVTMTRDTSTSTVYMELSSLRSEDTAVYYCARQREEYGHYYYGMDVWGQGTMVTVSS
VL: EIVMTQSPATLSVSPGERATLSCRASQSLGSTYLAWYQQKPGQAPRLLIYGASTRATGIPARFSGSGSGTEFTLTISSLQSEDFAVYYCQQYYSSPPTFGQGTKVEIK

binding: no binding (tested: <0.02 nm at 115 s)
B15: Antibody 29 (scFv, V domains shown)
VH: QVQLVQSGAEVKKPGASVKVSCKASGGTFSSYAISWVRQAPGQGLEWMGIINPSSSSTGYAQKFQGRVTMTRDTSTSTVYMELSSLRSEDTAVYYCARAGYYDSSGYYYSPYYGMDVWGQGTTVTVSS
VL: B14 VL with L29I, G30S, S31G, T32S, Y93G, S95F, P97F, Q101P, E106D

binding: no binding (tested: <0.02 nm at 115 s)
B16: Antibody 21 (scFv, V domains shown)
VH: EVQLLESGGGLVQPGGSLRLSCAASGFTLGSYWMHWVRQAPGKGLEWVSLISWDGGSTYYADSVKGRFTISRDNSKNTLYLQMNSLRAEDTAVYYCAKGPWVGYSGYDLNYYYYGMDVWGQGTTVTVSS
VL: DIQMTQSPSSLSASVGDRVTITCRASQDIRRALAWYQQKPGKAPKLLIYAASSLQSGVPSRFSGSGSGTDFTLTISSLQPEDFATYYCLQHNSYPPTFGQGTKLEIK

binding: no binding (tested: <0.02 nm at 115 s)
B17: Antibody 24 (scFv, V domains shown)
VH: QVQLVQSGAEVKKPGASVKVSCKASGYTFTGYYMHWVRQAPGQGLEWMGIINPSGGSTNYAQKFQGRVTMTRDTSTSTVYMELSSLRSEDTAVYYCARGPIGYGMDVWGQGTLVTVSS
VL: B16 VL with D28G, R30G, R31N, A32D, A34G, S53N, Q55E, S56T, N92H, P96F

binding: no binding (tested: <0.02 nm at 115 s)
B18: Antibody 25 (scFv, V domains shown)
VH: EVQLLESGGGLVQPGGSLRLSCAASGFTVGSWYMSWVRQAPGKGLEWVAHVSDDGSNEFYADSVKGRFTISRDNSKNTLYLQMNSLRAEDTAVYYCARSPGYCSSTSCYRYYGMDVWGQGTTVTVSS
VL: DIQMTQSPSSLSASVGDRVTITCRTSQSIGTYLNWYQQKPGKAPKLLIYDASNLPTGVPSRFSGSGSGTDFTLTISSLQPEDFATYYCQNYNSALFGPGTKVDIK

binding: no binding (tested: <0.02 nm at 115 s)
B19: Antibody 19 (scFv, V domains shown)
VH: QVQLVQSGAEVKKPGASVKVSCKASGYTFTAYYMHWVRQAPGQGLEWMGIINPSGGSTSYAQKFQGRVTMTRDTSTSTVYMELSSLRSEDTAVYYCARDSGWYAPGYYYGMDVWGQGTTVTVSS
VL: DIQMTQSPSSLSASVGDRVTITCRASESISHWLAWYQQKPGKAPKLLIYGASTLQSGVPSRFSGSGSGTDFTLTISSLQPEDFATYYCQQSYTPPLTFGGGTKVEIK

binding: no binding (tested: <0.02 nm at 115 s)
B20: Antibody 31 (scFv, V domains shown)
VH: QVQLVQSGAEVKKPGASVKVSCKASGGTFRSYAISWVRQAPGQGLEWMGWMNPNSGNTGYAQKFQGRVTMTRDTSTSTVYMELSSLRSEDTAVYYCARESVLKGGMDVWGQGTTVTVSS
VL: DIVMTQSPDSLAVSLGERATINCRSSQSLFHSSTNANNLAWYQQKPGQPPKLLIYWASTRESGVPDRFSGSGSGTDFTLTISSLQAEDVAVYYCQQYYITPLTFGQGTRLEIK

binding: no binding (tested: <0.02 nm at 115 s)
B21: Antibody 18 (scFv, V domains shown)
VH: B6 VH with S30T, N31G, A99G, M101G, S103D, S104A, S105G, G106V
VL: DIQMTQSPSSLSASVGDRVTITCRASQGIGNDLAWYQQKPGKAPKLLIYDAKDLHPGVPSRFSGSGSGTDFTLTISSLQPEDFATYYCQQSYSFPRTFGQGTRLEIK

Substitutions are numbered along the chain they refer to. These are yes or no findings as the source states them, for the method shown. One block for each binder: values may come before it.
